Experimental data: PubChem BioAssay AID1224830 (NIAID, 2016)

Test: 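Host factors that control LPS-induced TNF expression in human macrophages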 (primary screen)
System: human THP-1 monocytic leukaemia cells, TNF dual-luciferase reporter clone, PMA-differentiated to macrophage-like cells
Reagent: siRNA pool against human genes, 50 nM
Duration: LPS for 4 h, given about 3 days after siRNA transfection
Treatment: bacterial LPS (TLR4 ligand), 10 ng/ml
Measured: 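TNF firefly reporter luminescence divided by renilla, normalised to the plate median, then turned into a robust z-score for each replicate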
Scale: TNF reporter robust z-score: higher = stronger TNF reporter response to LPS
Hit rule: 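Each well counts as active if its z-score is over 2.8 or under -1.5; controls are left without a call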
Shown is a random part of about 18,000 deposited reagents. In the full data, about 2,900 (16%) were called active. 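Calls are made per well; low scores hint the gene aids the LPS response, high scores that it dampens it.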 Repeated entries: four replicate wells of each siRNA pool.

target	TNF reporter robust z-score	Outcome
NUDT4	-1.47	inactive
NUDT4	-0.65	inactive
NUDT4	-0.94	inactive
NUDT4	0.09	inactive
ANKRA2	-0.11	inactive
ANKRA2	0.14	inactive
ANKRA2	-0.61	inactive
ANKRA2	-0.68	inactive
SEMA3C	-0.84	inactive
SEMA3C	-0.73	inactive
SEMA3C	0.11	inactive
SEMA3C	0.13	inactive
MIA3	0.64	inactive
MIA3	0.59	inactive
MIA3	0.42	inactive
MIA3	0.71	inactive
TDRD10	-0.19	inactive
TDRD10	-0.28	inactive
TDRD10	-1.29	inactive
TDRD10	-0.54	inactive
PDCD11	1.21	inactive
PDCD11	0.24	inactive
PDCD11	0.27	inactive
PDCD11	1.16	inactive
PCDHGA9	-1.49	inactive
PCDHGA9	-0.42	inactive
PCDHGA9	-1.07	inactive
PCDHGA9	0.04	inactive
BIN1	-0.17	inactive
BIN1	0.16	inactive
BIN1	-0.83	inactive
BIN1	-0.99	inactive
SMARCA4	-0.23	inactive
SMARCA4	-0.45	inactive
SMARCA4	-0.37	inactive
GTPBP2	0.35	inactive
GTPBP2	1.12	inactive
GTPBP2	0.45	inactive
GTPBP2	1.78	inactive
CILP2	-0.45	inactive
CILP2	-0.51	inactive
CILP2	-0.3	inactive
PRR21	0.02	inactive
PRR21	-0.16	inactive
PRR21	-0.64	inactive
PRR21	0.6	inactive
GSDMC	-1.58	active
GSDMC	2.09	inactive
GSDMC	0.39	inactive
GSDMC	1.89	inactive
DNAI2	-0.99	inactive
DNAI2	-0.85	inactive
DNAI2	-0.73	inactive
DNAI2	-0.79	inactive
KHDC1	0.71	inactive
KHDC1	1.27	inactive
KHDC1	0.25	inactive
KHDC1	1.18	inactive
ACTRT2	0.07	inactive
ACTRT2	-1.41	inactive
ACTRT2	-1.67	active
ACTRT2	-0.62	inactive
CERCAM	0.63	inactive
CERCAM	0.88	inactive
CERCAM	0.02	inactive
CERCAM	1.9	inactive
P2RY4	0.56	inactive
P2RY4	0.21	inactive
P2RY4	-0.04	inactive
LCT	-0.08	inactive
LCT	-0.03	inactive
LCT	0.9	inactive
MAPK1IP1L	-0.85	inactive
MAPK1IP1L	0.2	inactive
MAPK1IP1L	1.01	inactive
MAPK1IP1L	-0.13	inactive
ZNF296	1.85	inactive
ZNF296	2.24	inactive
ZNF296	0.58	inactive
ZNF296	0.86	inactive
ALKBH6	1.12	inactive
ALKBH6	1.81	inactive
ALKBH6	0.11	inactive
ALKBH6	0.91	inactive
ELAVL3	-0.12	inactive
ELAVL3	-1.67	active
ELAVL3	-1.87	active
ELAVL3	-1.92	active
NELFA	4.02	active
NELFA	2.72	inactive
NELFA	2.53	inactive
NELFA	3.45	active
TMEM107	-1.17	inactive
TMEM107	-0.79	inactive
TMEM107	-0.7	inactive
TMEM107	-1.1	inactive
MS4A15	-0.89	inactive
MS4A15	0.44	inactive
MS4A15	0.95	inactive
MS4A15	-0.19	inactive
ZKSCAN5	-0.89	inactive
ZKSCAN5	-0.05	inactive
ZKSCAN5	-0.96	inactive
ZKSCAN5	-0.52	inactive
EXO5	-0.23	inactive
EXO5	-0.49	inactive
EXO5	-1.09	inactive
EXO5	-0.97	inactive
SPAG11A	-1.13	inactive
SPAG11A	-0.79	inactive
SPAG11A	-0.01	inactive
SPAG11A	0.31	inactive
ARHGEF26	-0.25	inactive
ARHGEF26	0.1	inactive
ARHGEF26	-0.46	inactive
ARHGEF26	1.16	inactive
B3GALNT2	-2.16	active
B3GALNT2	-0.21	inactive
B3GALNT2	-2.03	active
B3GALNT2	0.48	inactive
BRAT1	-0.24	inactive
BRAT1	1.9	inactive
BRAT1	1.61	inactive
BRAT1	0.37	inactive
GZMA	0.96	inactive
GZMA	1.53	inactive
GZMA	0.37	inactive
GZMA	2.77	inactive
LRRC40	-1.94	active
LRRC40	-1.45	inactive
LRRC40	-1.6	active
NSD1	-0.05	inactive
NSD1	0.71	inactive
NSD1	-1.28	inactive
NSD1	-0.42	inactive
PCDHA5	-0.56	inactive
PCDHA5	-1.06	inactive
PCDHA5	-0.14	inactive
PCDHA5	0.49	inactive
PIWIL4	-1.07	inactive
PIWIL4	0.34	inactive
PIWIL4	-0.62	inactive
PIWIL4	0.53	inactive

Entries listed so far whose target name starts with A or a:
target	TNF reporter robust z-score	Outcome
ANKRA2	-0.11	inactive
ANKRA2	0.14	inactive
ANKRA2	-0.61	inactive
ANKRA2	-0.68	inactive
ACTRT2	0.07	inactive
ACTRT2	-1.41	inactive
ACTRT2	-1.67	active
ACTRT2	-0.62	inactive
ALKBH6	1.12	inactive
ALKBH6	1.81	inactive
ALKBH6	0.11	inactive
ALKBH6	0.91	inactive
ARHGEF26	-0.25	inactive
ARHGEF26	0.1	inactive
ARHGEF26	-0.46	inactive
ARHGEF26	1.16	inactive
